Measurements reported in PubChem BioAssay AID686943 (Drosophila RNAi Screening Center, 2013).
Screen: 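Knockdowns that increase or decrease active ERK after insulin receptor stimulation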 (primary screen). Cell system: Drosophila S2R+ haemocyte-like cells expressing YFP-tagged ERK (Rolled). Knock-down reagent: long dsRNA against Drosophila genes. Conditions: insulin stimulation versus unstimulated cells; dose and duration not given. Measured: 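Per-plate z-scores of phospho-ERK immunostaining normalised to YFP-tagged ERK, measured with and without insulin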. Direction: replicate 1, z-score of dpERK with insulin and replicate 2, z-score of dpERK with insulin: higher = more active ERK per ERK-YFP after insulin; replicate 1, z-score of dpERK under basal conditions: higher = more basal active ERK per ERK-YFP; replicate 1, z-score of ERK-YFP with insulin: higher = more YFP-tagged ERK signal.
In all, the deposit lists about 23,000 reagents; below is an unselected part of those with a known target gene and a result. 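Extra replicates exist only for a retested subset of genes; insulin dose and duration not given; both raised and lowered dpERK matter.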 Reagent sequences are not shown. Not given: the amount of reagent, the time to read-out.

Gene	DRSC id	replicate 1, z-score of dpERK with insulin	replicate 2, z-score of dpERK with insulin	replicate 1, z-score of dpERK under basal conditions	replicate 1, z-score of ERK-YFP with insulin
B4	DRSC01868	5.95	6.08	-1.17	0.27
B4	DRSC03175	0.72	-0.83	-0.23	-0.71
CG11356	DRSC19401	0.08	0.33	-0.6	0.11
l(3)80Fj (lethal (3) 80Fj)	DRSC20986	-2.21	-1.38	-0.17	-0.24
l(3)80Fj (lethal (3) 80Fj)	DRSC20989	-0.29	-0.24	-0.3	0.2
SmydA-5 (SET and MYND domain containing, arthropod-specific, member 5)	DRSC04867	0	0.48	-0.07	0.16
CG12107	DRSC06102	0.64	1.22	1.75	2.22
Spn43Aa (Serpin 43Aa)	DRSC06117	-0.09	0.05	0.1	-0.51
spt4	DRSC07696	0.14	0.34	-0.51	-0.45
CG33514	DRSC08471	-0.22	-1.02	-0.04	0.1
CG33514	DRSC08472	0.59	-0.45	-0.32	0.36
CG33514	DRSC21670	0.52	-0.14	-0.7	-0.74
CG34149	DRSC14537	0.36	-0.05	-0.19	0.22
Taf3 (TBP-associated factor 3)	DRSC17170	1.21	1.53	-1.94	-0.05

Continued; the last 4 above are carried over.
Gene	DRSC id	replicate 1, z-score of dpERK with insulin	replicate 2, z-score of dpERK with insulin	replicate 1, z-score of dpERK under basal conditions	replicate 1, z-score of ERK-YFP with insulin
CG33514	DRSC08472	0.59	-0.45	-0.32	0.36
CG33514	DRSC21670	0.52	-0.14	-0.7	-0.74
CG34149	DRSC14537	0.36	-0.05	-0.19	0.22
Taf3 (TBP-associated factor 3)	DRSC17170	1.21	1.53	-1.94	-0.05
Vps39 (Vacuolar protein sorting 39)	DRSC16205	0.52	0.01	-0.39	0.97
Pak (p21-activated kinase)	DRSC12602	-0.69	-0.04	-1.26	0.46
Fbl6 (F-box and leucine-rich repeat protein 6)	DRSC06335	0.63	0.61	-2.28	-1.58
CG18744	DRSC15381	-0.39	-0.08	-0.22	0.11
jumu (jumeau)	DRSC16651	0.8	0.14	0.69	-0.93
AcCoAS (Acetyl Coenzyme A synthase)	DRSC11477	0.05	1.02	0.65	0.27
AcCoAS (Acetyl Coenzyme A synthase)	DRSC11603	-1.11	-0.2	-0.15	0.21
AcCoAS (Acetyl Coenzyme A synthase)	DRSC22850	0.68	0.27	-0.52	-0.43
alpha-Cat (alpha Catenin)	DRSC11917	-0.13	0.99	1.25	0.4
CG5890	DRSC15909	-1.71	-0.1	-1.11	0.72
CG14852	DRSC14976	0.04	-0.58	-0.96	0.08
CG33110	DRSC14694	-1.08	-1.49	-1.1	-0.13
CG33110	DRSC16137	0.17	-0.04	-0.4	0.78
CG34354	DRSC13863	0.09	0.2	-0.39	-0.31
CG34354	DRSC14515	-0.67	-3.17	-1.74	-0.96
CG34354	DRSC14558	-0.31	-3.42	-2.11	-2.96
CG34354	DRSC15645	1.32	0	-0.05	0.33
CG15753 (retired record)	DRSC18982	0.03	1.1	0.48	-0.13
CG15753 (retired record)	DRSC19503	0.03	0.22	-0.24	0.57
CG15753 (retired record)	DRSC19716	0.17	0.84	0.39	-0.06
CG15753 (retired record)	DRSC19717	0.02	0.27	0.06	-0.13
CG15753 (retired record)	DRSC19718	-4.13	-2.59	-1.94	-1.97
Ccn	DRSC09504	0.38	-0.09	0.46	0.08
Ccn	DRSC09506	-4.89	-4.32	-0.69	0.36
Ccn	DRSC10062	-0.09	-0.38	1.12	-0.01
Ccn	DRSC10063	2.33	0.61	0.3	-1.62
